Test results from publication PMC5186903.

Experiments:
[1] = molecular target: T1, MIC60 (mitofilin), core MICOS component (mouse (endogenous in mouse liver, heart, MEF and MAF mitochondria)) (UniProt Q8CAQ8); assay: co-IP; mouse liver mitochondrial lysates (250 μg) immunoprecipitated with anti-MIC60 coupled to Protein A agarose beads; SDS-GE and immunoblot
T1 sequence: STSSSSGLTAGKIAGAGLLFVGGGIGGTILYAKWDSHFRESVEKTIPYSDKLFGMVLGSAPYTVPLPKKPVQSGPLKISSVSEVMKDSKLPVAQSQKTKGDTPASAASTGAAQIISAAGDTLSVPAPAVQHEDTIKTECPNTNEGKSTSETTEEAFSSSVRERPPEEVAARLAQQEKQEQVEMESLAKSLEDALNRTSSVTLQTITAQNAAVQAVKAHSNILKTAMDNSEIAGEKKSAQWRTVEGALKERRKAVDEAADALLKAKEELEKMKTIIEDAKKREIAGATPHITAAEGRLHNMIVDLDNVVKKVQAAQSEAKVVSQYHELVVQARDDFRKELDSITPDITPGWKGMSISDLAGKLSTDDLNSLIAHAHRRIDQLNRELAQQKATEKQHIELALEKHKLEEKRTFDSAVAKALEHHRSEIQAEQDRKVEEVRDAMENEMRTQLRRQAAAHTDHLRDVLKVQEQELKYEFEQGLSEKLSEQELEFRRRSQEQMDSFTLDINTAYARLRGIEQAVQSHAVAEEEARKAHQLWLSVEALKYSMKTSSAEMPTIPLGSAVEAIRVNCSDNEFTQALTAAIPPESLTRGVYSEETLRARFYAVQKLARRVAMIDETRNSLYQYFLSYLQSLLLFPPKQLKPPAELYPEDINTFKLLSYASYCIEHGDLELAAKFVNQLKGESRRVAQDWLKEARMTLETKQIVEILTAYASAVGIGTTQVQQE

[2] = molecular target: T1, MIC60 (mitofilin), core MICOS component (mouse (endogenous in mouse liver, heart, MEF and MAF mitochondria)); assay: co-IP; DSP-treated mitochondria, OPA1 co-immunoprecipitated with MIC60 (Figure S2B)

binding [1]: binds
binding [2]: binds
Substance: Optic atrophy 1 (OPA1)

No constants are given. Whether binding was seen depends on the method and setting. In cells and extracts the contact can be indirect. Binding calls can cover weak binding; strength is not graded here.
